Test results as given in US10563263B2, “Genetic polymorphisms associated with statin response and cardiovascular diseases, methods of detection and uses thereof” (CELERA CORPORATION, priority 2010, dated 2020).
This continues a long series; more values of the same kind are listed elsewhere.

Tested on: CVD (CHD or stroke)
Test: Meta-analysis of CARE and WOSCOPS combined, synergy index, CVD endpoint
Assay type: in vivo, human
Description: Tables 4-5 provide meta-analyses of CARE and WOSCOPS combined (2nd section of each table) for two endpoints (CHD and CVD) and three genetic models (dominant, recessive, and additive), as well as logistic regression analyses of CARE (3rd section of each table) and WOSCOPS (4th section of each table) individually.
Tables 12 and 17 provide results of meta-analysis of the CARE and WOSCOPS sample sets combined by direct genotyping and by imputing genotypes.
“P” indicates the p-value, and “P(R)” (or “P.R.”) indicates the p-value random effect. Both of these are p-values corresponding to a statistical test of whether the combined synergy index is equal to one but use different assumptions to derive the p-value. “P” is calculated using a fixed effects model, and “P(R)” is calculated using a random effects model.
“OR” indicates the odds ratio (synergy index) calculated from a fixed effects model, and “OR(R)” (or “OR.R.”) indicates the odds ratio (synergy index) calculated from a random effects model.

[1] = rs613799 allele C DOMINANT Imputed
[2] = rs644041 allele G ADDITIVE Imputed
[3] = rs644041 allele G DOMINANT Imputed
[4] = rs647645 allele C ADDITIVE Imputed
[5] = rs647645 allele C GENOTYPIC Imputed
[6] = rs647645 allele C RECESSIVE Imputed
[7] = rs658108 allele A DOMINANT Imputed
[8] = rs668732 allele A DOMINANT Imputed
[9] = rs671041 allele A DOMINANT Imputed
[10] = rs687047 allele C ADDITIVE Imputed
[11] = rs688358 allele A ADDITIVE Imputed
[12] = rs710832 allele A GENOTYPIC Genotyped
[13] = rs710832 allele A RECESSIVE Genotyped
[14] = rs742827 allele A ADDITIVE Imputed
[15] = rs742827 allele A GENOTYPIC Imputed
[16] = rs742827 allele A RECESSIVE Imputed
[17] = rs6040644 allele A GENOTYPIC Imputed
[18] = rs6040644 allele A RECESSIVE Imputed
[19] = rs6040667 allele T ADDITIVE Imputed
[20] = rs6040667 allele T GENOTYPIC Imputed
[21] = rs6040667 allele T RECESSIVE Imputed
[22] = rs6040668 allele C ADDITIVE Imputed
[23] = rs6040668 allele C GENOTYPIC Imputed
[24] = rs6040668 allele C RECESSIVE Imputed
[25] = rs6043066 allele G DOMINANT Genotyped
[26] = rs6048146 allele G DOMINANT Imputed
[27] = rs6082725 allele T DOMINANT Genotyped
[28] = rs6131206 allele C ADDITIVE Imputed
[29] = rs6131208 allele T ADDITIVE Imputed
[30] = rs6131208 allele T GENOTYPIC Imputed
[31] = rs6131208 allele T RECESSIVE Imputed
[32] = rs6134243 allele C ADDITIVE Imputed
[33] = rs6134243 allele C GENOTYPIC Imputed
[34] = rs6134243 allele C RECESSIVE Imputed
[35] = rs6136020 allele A DOMINANT Imputed
[36] = rs6495554 allele C GENOTYPIC Imputed
[37] = rs6495554 allele C RECESSIVE Imputed
[38] = rs6495555 allele C GENOTYPIC Imputed
[39] = rs6495555 allele C RECESSIVE Imputed
[40] = rs6544728 allele T DOMINANT Imputed
[41] = rs6550705 allele C ADDITIVE Imputed
[42] = rs6550705 allele C GENOTYPIC Imputed
[43] = rs6550707 allele T GENOTYPIC Imputed
[44] = rs6593441 allele A DOMINANT Imputed
[45] = rs6719700 allele A ADDITIVE Imputed
[46] = rs6719700 allele A DOMINANT Imputed
[47] = rs6722640 allele T DOMINANT Imputed
[48] = rs6743092 allele T ADDITIVE Imputed
[49] = rs6743092 allele T GENOTYPIC Imputed
[50] = rs6743092 allele T RECESSIVE Imputed
[51] = rs6744759 allele G RECESSIVE Imputed
[52] = rs6746170 allele A DOMINANT Imputed
[53] = rs6759922 allele A DOMINANT Imputed
[54] = rs6769864 allele T GENOTYPIC Imputed
[55] = rs6773932 allele C GENOTYPIC Imputed

SMILES: CC[C@H](C)C(=O)O[C@H]1C[C@H](O)C=C2C=C[C@H](C)[C@H](CC[C@@H](O)C[C@@H](O)CC(=O)O)[C@H]21 [Pravastatin, pravastatin]
- OR (rs483159 allele T DOMINANT Imputed): 1.4202
- OR (rs489441 allele G ADDITIVE Imputed): 1.4992
- OR (rs489441 allele G DOMINANT Imputed): 1.6072
- OR [1]: 1.5657
- OR(R) [1]: 1.5657
- OR [2]: 1.4631
- OR(R) [2]: 1.4631
- OR [3]: 1.5751
- OR(R) [3]: 1.5751
- OR [4]: 0.7025
- OR(R) [4]: 0.7025
- OR [5]: 0.4822
- OR(R) [5]: 0.4822
- OR [6]: 0.5474
- OR(R) [6]: 0.5474
- OR [7]: 1.5304
- OR(R) [7]: 1.5304
- OR [8]: 1.6958
- OR(R) [8]: 1.6958
- OR [9]: 1.5412
- OR(R) [9]: 1.5412
- OR [10]: 0.6716
- OR(R) [10]: 0.6716
- OR [11]: 0.6614
- OR(R) [11]: 0.6614
- OR [12]: 0.3641
- OR(R) [12]: 0.3641
- OR [13]: 0.3456
- OR(R) [13]: 0.3456
- OR [14]: 1.3962
- OR(R) [14]: 1.3962
- OR [15]: 1.9872
- OR(R) [15]: 1.9872
- OR [16]: 1.6988
- OR(R) [16]: 1.6988
- OR (rs937890 allele G (A1), DOMINANT, Imputed): 0.6731
- OR (rs949016 allele C (A1), ADDITIVE, Imputed): 1.5082
- OR (rs966583 allele A (A1), ADDITIVE, Imputed): 0.7272
- OR (rs966583 allele A (A1), DOMINANT, Imputed): 0.5916
- OR (rs974130 allele A (A1), RECESSIVE, Genotyped): 2.0112
- OR (rs977160 allele T (A1), ADDITIVE, Imputed): 1.5465
- OR (rs985375 allele A (A1), GENOTYPIC, Imputed): 2.8891
- OR (rs4760895 allele A ADDITIVE Imputed): 0.7392
- OR (rs4760895 allele A DOMINANT Imputed): 0.6285
- OR (rs4760895 allele A GENOTYPIC Imputed): 0.574
- OR (rs4764738 allele A ADDITIVE Imputed): 1.4051
- OR (rs4764738 allele A GENOTYPIC Imputed): 1.9728
- OR (rs4764974 allele T ADDITIVE Imputed): 1.3855
- OR (rs4764974 allele T GENOTYPIC Imputed): 1.9196
- OR (rs4798366 allele G RECESSIVE Imputed): 1.8332
- OR (rs4836502 allele T DOMINANT Imputed): 0.6712
- OR (rs4836507 allele C DOMINANT Imputed): 0.6775
- OR (rs4836744 allele A ADDITIVE Imputed): 0.7345
- OR (rs4836744 allele A DOMINANT Imputed): 0.6854
- OR (rs4848944 allele C RECESSIVE Genotyped): 0.5945
- OR (rs4851529 allele A DOMINANT Imputed): 0.6476
- OR (rs4851531 allele T DOMINANT Imputed): 0.6621
- OR (rs4858046 allele T GENOTYPIC Genotyped): 2.0533
- OR (rs4878214 allele A ADDITIVE Imputed): 0.6477
- OR (rs4880803 allele A ADDITIVE Imputed): 0.7694
- OR (rs4896568 allele T DOMINANT Imputed): 0.6231
- OR (rs4938851 allele T DOMINANT Imputed): 1.4515
- OR (rs4964416 allele C DOMINANT Imputed): 0.6251
- OR (rs5756669 allele C DOMINANT Imputed): 1.6531
- OR (rs6033138 allele C ADDITIVE Imputed): 1.3837
- OR (rs6033138 allele C GENOTYPIC Imputed): 1.9484
- OR (rs6033138 allele C RECESSIVE Imputed): 1.6769
- OR (rs6040619 allele C ADDITIVE Imputed): 1.3881
- OR (rs6040619 allele C GENOTYPIC Imputed): 2.0334
- OR (rs6040619 allele C RECESSIVE Imputed): 1.7879
- OR (rs6040625 allele T ADDITIVE Imputed): 1.3888
- OR (rs6040625 allele T GENOTYPIC Imputed): 2.0214
- OR (rs6040625 allele T RECESSIVE Imputed): 1.7684
- OR (rs6040630 allele A ADDITIVE Imputed): 1.3767
- OR (rs6040630 allele A GENOTYPIC Imputed): 1.9741
- OR (rs6040630 allele A RECESSIVE Imputed): 1.7241
- OR (rs6040633 allele A ADDITIVE Imputed): 1.3703
- OR (rs6040633 allele A GENOTYPIC Imputed): 1.9475
- OR (rs6040633 allele A RECESSIVE Imputed): 1.6999
- OR (rs6040634 allele T ADDITIVE Imputed): 1.3722
- OR (rs6040634 allele T GENOTYPIC Imputed): 1.9531
- OR (rs6040634 allele T RECESSIVE Imputed): 1.7021
- OR (rs6040636 allele T ADDITIVE Imputed): 1.3761
- OR (rs6040636 allele T GENOTYPIC Imputed): 1.9585
- OR (rs6040636 allele T RECESSIVE Imputed): 1.7021
- OR (rs6040638 allele C ADDITIVE Imputed): 1.3722
- OR (rs6040638 allele C GENOTYPIC Imputed): 1.9531
- OR (rs6040638 allele C RECESSIVE Imputed): 1.7021
- OR (rs6040644 allele A ADDITIVE Imputed): 1.3722
- OR [17]: 1.9531
- OR(R) [17]: 1.9531
- OR [18]: 1.7021
- OR(R) [18]: 1.7021
- OR [19]: 1.3662
- OR(R) [19]: 1.3662
- OR [20]: 1.9386
- OR(R) [20]: 1.9386
- OR [21]: 1.6903
- OR(R) [21]: 1.6903
- OR [22]: 1.3643
- OR(R) [22]: 1.3643
- OR [23]: 1.9325
- OR(R) [23]: 1.9325
- OR [24]: 1.6839
- OR(R) [24]: 1.6839
- OR [25]: 1.4888
- OR(R) [25]: 1.4596
- OR [26]: 2.6562
- OR(R) [26]: 2.6562
- OR [27]: 2.6562
- OR(R) [27]: 2.6562
- OR [28]: 1.3126
- OR(R) [28]: 1.3126
- OR [29]: 1.3725
- OR(R) [29]: 1.3725
- OR [30]: 1.9551
- OR(R) [30]: 1.9551
- OR [31]: 1.7011
- OR(R) [31]: 1.7011
- OR [32]: 1.3722
- OR(R) [32]: 1.3722
- OR [33]: 1.9531
- OR(R) [33]: 1.9531
- OR [34]: 1.7021
- OR(R) [34]: 1.7021
- OR [35]: 0.5953
- OR(R) [35]: 0.5953
- OR [36]: 3.4509
- OR(R) [36]: 3.4509
- OR [37]: 3.317
- OR(R) [37]: 3.317
- OR [38]: 3.4509
- OR(R) [38]: 3.4509
- OR [39]: 3.317
- OR(R) [39]: 3.317
- OR [40]: 1.6406
- OR(R) [40]: 1.6406
- OR [41]: 1.3969
- OR(R) [41]: 1.3969
- OR [42]: 2.0995
- OR(R) [42]: 2.0995
- OR [43]: 2.0358
- OR(R) [43]: 2.0358
- OR [44]: 1.6724
- OR(R) [44]: 1.6724
- OR [45]: 1.4892
- OR(R) [45]: 1.4892
- OR [46]: 1.5282
- OR(R) [46]: 1.5282
- OR [47]: 0.6343
- OR(R) [47]: 0.6343
- OR [48]: 1.3618
- OR(R) [48]: 1.3618
- OR [49]: 1.8571
- OR(R) [49]: 1.8571
- OR [50]: 1.5648
- OR(R) [50]: 1.5648
- OR [51]: 1.7637
- OR(R) [51]: 1.7637
- OR [52]: 1.6166
- OR(R) [52]: 1.6166
- OR [53]: 0.5892
- OR(R) [53]: 0.5892
- OR [54]: 2.0921
- OR(R) [54]: 2.0921
- OR [55]: 2.0503
- OR(R) [55]: 2.0503
